Experimental data taken from article PMC3524233.
These are yes or no findings as the source states them, for the method shown. For some assays here: Binding seen in cells or lysates may run through a third protein. Some results given as binding are weak or reduced against the parent protein; the word gives no strength. Values belong to the substance of their own block, whether it stands above or below them.

Chains of the proteins cited; added tags and fusions are not shown. Lines headed by an entry give the natural chain unless they say otherwise; changes in a name come on top. A line that says so, or that is headed by a name, gives the form on record, which may keep a tag or linker. Residues count along the entry.
s10-RAGE(WT)-FLAG (Q15109, residues 23-404): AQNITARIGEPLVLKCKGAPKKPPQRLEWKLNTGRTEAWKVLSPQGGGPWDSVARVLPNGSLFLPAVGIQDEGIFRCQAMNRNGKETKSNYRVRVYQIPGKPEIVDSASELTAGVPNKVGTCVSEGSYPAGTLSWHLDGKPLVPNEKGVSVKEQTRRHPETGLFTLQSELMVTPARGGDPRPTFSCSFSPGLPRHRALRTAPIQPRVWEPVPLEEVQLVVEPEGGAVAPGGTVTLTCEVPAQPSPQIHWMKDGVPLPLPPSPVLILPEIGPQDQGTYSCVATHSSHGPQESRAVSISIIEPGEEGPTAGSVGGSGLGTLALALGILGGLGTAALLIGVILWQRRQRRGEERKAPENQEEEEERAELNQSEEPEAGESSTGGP
s10-RAGE(C259S/C301S)-FLAG (Q15109, form named): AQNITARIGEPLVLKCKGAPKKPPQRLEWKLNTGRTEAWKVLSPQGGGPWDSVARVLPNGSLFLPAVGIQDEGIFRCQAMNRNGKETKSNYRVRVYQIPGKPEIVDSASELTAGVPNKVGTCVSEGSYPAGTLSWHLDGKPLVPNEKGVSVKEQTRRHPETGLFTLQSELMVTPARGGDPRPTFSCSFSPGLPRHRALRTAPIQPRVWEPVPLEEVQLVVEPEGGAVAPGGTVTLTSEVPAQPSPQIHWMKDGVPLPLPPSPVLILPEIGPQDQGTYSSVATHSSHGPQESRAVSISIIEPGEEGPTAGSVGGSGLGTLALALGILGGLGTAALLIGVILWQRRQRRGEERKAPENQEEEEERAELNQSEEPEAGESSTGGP
RAGE(C301S) (Q15109, form named): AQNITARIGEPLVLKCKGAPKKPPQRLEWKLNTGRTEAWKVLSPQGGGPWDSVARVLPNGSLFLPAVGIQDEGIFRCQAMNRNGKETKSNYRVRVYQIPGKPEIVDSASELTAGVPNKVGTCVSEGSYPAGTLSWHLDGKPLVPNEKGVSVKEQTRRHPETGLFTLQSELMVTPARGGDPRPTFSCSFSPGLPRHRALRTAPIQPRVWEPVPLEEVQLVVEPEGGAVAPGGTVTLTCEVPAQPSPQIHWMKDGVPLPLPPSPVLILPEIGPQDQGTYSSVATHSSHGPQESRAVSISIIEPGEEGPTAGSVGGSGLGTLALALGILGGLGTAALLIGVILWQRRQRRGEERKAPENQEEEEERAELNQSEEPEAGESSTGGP
RAGE(C259S) (Q15109, form named): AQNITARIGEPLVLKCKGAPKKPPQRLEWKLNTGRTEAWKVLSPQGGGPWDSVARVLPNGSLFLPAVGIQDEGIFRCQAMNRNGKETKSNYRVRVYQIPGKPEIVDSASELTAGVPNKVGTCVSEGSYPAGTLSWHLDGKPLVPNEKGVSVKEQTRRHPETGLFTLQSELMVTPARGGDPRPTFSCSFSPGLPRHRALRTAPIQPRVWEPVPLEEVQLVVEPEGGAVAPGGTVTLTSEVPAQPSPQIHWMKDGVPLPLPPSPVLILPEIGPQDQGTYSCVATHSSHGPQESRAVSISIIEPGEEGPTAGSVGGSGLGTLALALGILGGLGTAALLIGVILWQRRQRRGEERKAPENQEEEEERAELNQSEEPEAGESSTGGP

Assays:
[1] = molecular target: FLAG-tagged RAGE (WT) (UniProt Q15109); assay: non-reducing SDS-PAGE with immunoblot; the same study in transfected HeLa cells (Figure S1)
[2] = molecular target: FLAG-tagged RAGE (WT) (UniProt Q15109); assay: non-reducing SDS-PAGE with immunoblot; membrane extracts of transfected CHO-CD14 cells; DTT omitted from the loading buffer, 2% LDS, 80°C for 10 min, NuPAGE 4-12% Bis-Tris gel
[3] = molecular target: FLAG-tagged RAGE (WT) (UniProt Q15109); assay: co-IP; FLAG-tagged RAGE transfected transiently into CHO-CD14 cells stably transfected with T7-tagged RAGE; unfractionated membrane extracts; IP with anti-FLAG, IB with anti-T7
[4] = molecular target: FLAG-tagged RAGE (WT) (UniProt Q15109); assay: cross-linking; membrane fraction of FLAG-RAGE-transfected CHO-CD14 cells (or the cultured cells directly) cross-linked with BS3, PBS pH 8.0, room temperature, 30 min; SDS-PAGE and IB
[5] = molecular target: s10-RAGE(C259S/C301S)-FLAG (UniProt Q15109); assay: split reporter; tripartite split GFP complementation in the ER: s10- and s11-tagged proteins co-transfected with signalpep-GFPs1-9 in CHO-CD14 (and HeLa) cells; fluorescence and confocal microscopy, flow cytometry
[6] = molecular target: RAGE(C301S) (UniProt Q15109); assay: non-reducing SDS-PAGE with immunoblot; membrane extracts of transfected CHO-CD14 cells; DTT omitted from the loading buffer, 2% LDS, 80°C for 10 min, NuPAGE 4-12% Bis-Tris gel
[7] = molecular target: RAGE(C259S) (UniProt Q15109); assay: as above
[8] = molecular target: s10-RAGE(WT)-FLAG (UniProt Q15109); assay: split reporter; tripartite split GFP complementation in the ER: s10- and s11-tagged proteins co-transfected with signalpep-GFPs1-9 in CHO-CD14 (and HeLa) cells; fluorescence and confocal microscopy, flow cytometry

Substance: s10-RAGE(C259S/C301S)-FLAG (from UniProt Q15109 23-404) (receptor)
- binding [5]: binds

Substance: RAGE(C259S) (from UniProt Q15109 23-404) (receptor)
- binding [7]: binds

The remaining lines, values ahead:

- binding [1]: binds
- binding [2]: binds
- binding [3]: binds
- binding [4]: binds
Substance: FLAG-tagged RAGE (WT) (from UniProt Q15109 23-404) (receptor)

- binding [6]: binds
Substance: RAGE(C301S) (from UniProt Q15109 23-404) (receptor)

- binding [8]: binds
Substance: s10-RAGE(WT)-FLAG (from UniProt Q15109 23-404) (receptor)
